Source: US6355627B1, “Branched cyclodextrin clathrate compound of hinokitiols and composition containing the same” (Takasago International Corporation, priority 1999, dated 2002)

Assay: Evaluation of corrosion of stainless test piece in aqueous solution
Conditions: 0.1% aqueous solution (1.0% for the clathrate), stirred

CC(C)c1cccc(=O)c([O-])c1.[Na+] [sodium salt of hinokitiol]
Corrosion rate at 90° C., Sus 304 (90° C.): 0.30 mm/year and 0.30 mm mm/year | Corrosion rate at 25° C., Sus 304 (room temperature (25° C.)): 0.10 mm/year and 0.10 mm mm/year

Several values for one entry are separate records, joined by “and”; a condition that tells them apart may be missing. Identical values can stand only once.
